In publication PMC5509742:
No constants are given. Whether binding was seen depends on the method and setting. Some binding calls cover weakened binding; strength is not graded here.

Molecular target: catalytic domain of PhaC from Chromobacterium sp. USM2 (residues 175-567) (Chromobacterium sp. USM2) (UniProt E1APK1)
Assay: SEC; Superdex 200 (10/30), 30 µM protein in the absence or presence of 0.5 mM DL-3HB-CoA, 10 mM Tris-HCl (pH 8.0), 100 mM NaCl, 3 mM β-ME, 4 °C; monomer to dimer; both purified

With “catalytic domain of PhaC from Chromobacterium sp. USM2 (residues 175-567) (from UniProt E1APK1 175-567) (domain or fragment)” the binding was “binds weakly”.
